Primary screen of a compound library

Data taken from ChEMBL document CHEMBL3988442, “University of Dundee, Small-Polar-MMV Screening Library” (2021).

Mtb glucose medium: 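Whole-cell growth test on Mycobacterium tuberculosis, read after 3 days in glucose-containing 7H9 medium; the read-out is not stated. Concentration: 50 µM. The record gives no direction; compounds that gave an IC50 in retests scored well above the rest, so higher reads as more growth inhibition. Size under these conditions: about 69,000 compounds, about 760 of them at 50% or above in at least one test.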
Mtb cholesterol medium: 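Phenotypic screen: M. tuberculosis growth, cholesterol and DPPC medium, 4 days; the read-out is not stated. Tested at 50 µM. Higher reads as more growth inhibition (inferred: compounds with an IC50 in retests scored well above the rest). Size under these conditions: about 69,000 compounds, about 370 of them at 50% or above in at least one test.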

Values are the deposited “Percent Effect”, in %. The record does not define 0% and 100%; most values in the screen are far below 50% and negative numbers occur (in some assays of this library far below -100). Compounds were drawn at random from those tested, without regard to their results. Two or more numbers in one place are separate tests of the same structure; such repeats can differ widely.

- COc1ccccc1C(O)CNc1c(C#N)c(=O)n(C)c(=O)n1C (configuration not stated) : Mtb glucose medium: 6.067%; Mtb cholesterol medium: 1.323%
- COC(=O)NCC(=O)NCC(C)(C)c1cccc(C(F)(F)F)c1 : Mtb glucose medium: 25.23%; Mtb cholesterol medium: -9.194%
- CC(C1CC1)N(C)C(=O)c1cnc(-c2ccc3c(c2)OCO3)s1 (configuration not stated) : Mtb glucose medium: 1.636% and 18.94%; Mtb cholesterol medium: -11.63%
- CC(C)N(C(=O)c1csc(-c2ccoc2)n1)C1CCOCC1 : Mtb glucose medium: 8.356%; Mtb cholesterol medium: -10.29%
- [H][C@@]12CCN(C3CCOCC3)C[C@]1([H])O[C@H](C(=O)N1CCOCC1)C2 : Mtb glucose medium: 12.44%; Mtb cholesterol medium: 10.08%
- CCOc1ccc2[nH]c(=O)c(CN3CCCC3c3ccccn3)cc2c1 (configuration not stated) : Mtb glucose medium: 8.338%; Mtb cholesterol medium: 14.42%
- CCOC(=O)CCNC(=O)N1CCN(c2nc3ccccc3n2C)CC1 : Mtb glucose medium: 23.51%; Mtb cholesterol medium: 17.24%
- Cn1cc(N2CCN(c3ccc(C#N)cc3F)CC2=O)cn1 : Mtb glucose medium: 9.47% and -6.608%; Mtb cholesterol medium: 16.28%
- O=C(c1cccnc1)N1CCSCC1 : Mtb glucose medium: 17.04%; Mtb cholesterol medium: -8.068%
- CCc1nccc(CN2CCC(CNC(=O)c3occc3C)C2)n1 (configuration not stated) : Mtb glucose medium: 8.732%; Mtb cholesterol medium: 11.49% and 4.431%
- CCOc1ccc(Cl)c(C(=O)N2CCCC(N3CCCC3)C2)n1 (configuration not stated) : Mtb glucose medium: 3.901%; Mtb cholesterol medium: -14.49%
- CC1c2ncc(CN3CCN(C)CC3)n2CCN1Cc1ccsc1.O=C(O)C(F)(F)F.O=C(O)C(F)(F)F.O=C(O)C(F)(F)F (configuration not stated) : Mtb glucose medium: -21.44%; Mtb cholesterol medium: 7.938%
- Cc1noc(C2CCC3(CCN(C(=O)c4ccnnc4)CC3)O2)n1 (configuration not stated) : Mtb glucose medium: -32.09%; Mtb cholesterol medium: -18.36%
- Cc1ccc(OC2(C(=O)O)CCN(C(=O)CCc3ccco3)CC2)cc1 : Mtb glucose medium: 11.03%; Mtb cholesterol medium: -9.36%
- Cc1ccc(F)cc1-c1ccc(N)nc1 : Mtb glucose medium: 38.55% and 18.32%; Mtb cholesterol medium: -17.33%
- Cc1noc2ncc(C(=O)NCC3CCOC3)cc12 (configuration not stated) : Mtb glucose medium: -49.74%; Mtb cholesterol medium: -25.76%
- CSc1ncc(CN(C)C(C)c2cccnc2)cn1 (configuration not stated) : Mtb glucose medium: -12.48%; Mtb cholesterol medium: -18.43%
- O=C1CCC2(CCN(Cc3ccoc3)CC2)N1OCc1ccccc1F : Mtb glucose medium: 20.46%; Mtb cholesterol medium: 14.82%
- COc1ccc(OC)c(CN2CCN(Cc3cscn3)CC2)c1 : Mtb glucose medium: 21.89%; Mtb cholesterol medium: 24.32%
- CCn1c(CN(C)C(=O)c2ccc(O)nc2)nc2ccccc21 : Mtb glucose medium: -16.01%; Mtb cholesterol medium: -10.68%
- Cc1ccc(CN(C)C(=O)CNC(=O)N2CCc3ccccc3C2)o1 : Mtb glucose medium: 9.063%; Mtb cholesterol medium: -2.385%
- Cc1cc(CN2CCN(C(=O)NCc3ccc(C)s3)CC2)no1 : Mtb glucose medium: -14.46%; Mtb cholesterol medium: -8.602%
- O=C1CC(c2cccs2)Cc2[nH]c(=O)ccc21 (configuration not stated) : Mtb glucose medium: -15.69%; Mtb cholesterol medium: -24.32% and -16.93%
- [H][C@]12C[C@H](C(=O)NC)N(C(C)C)[C@@]1([H])CN(c1cc(OC)ncn1)C2 : Mtb glucose medium: -6.889% and -9.722%; Mtb cholesterol medium: -21.16%
- [H][C@]12CCN(C(=O)c3cccn3C)[C@@]1([H])CCC(=O)N2CC1CC1 : Mtb glucose medium: 20.77% and -0.3496%; Mtb cholesterol medium: 17.56%
- CC(O)CN1CCN(C(=O)CN(C)c2cnccn2)CC1 (configuration not stated) : Mtb glucose medium: -39.96%; Mtb cholesterol medium: -19.3%
- CSCC(=O)N(C)Cc1ccccc1 : Mtb glucose medium: 22.49%; Mtb cholesterol medium: 19.34%
- CN(Cc1cnc(C(C)(C)C)nc1)Cc1nc2ccc(F)cc2[nH]1 : Mtb glucose medium: -23.6%; Mtb cholesterol medium: -8.028% and -1.944%
- CC(C)OCc1nn(CC2CC2)c2c1CN(Cc1ccco1)CC2.O=C(O)C(F)(F)F : Mtb glucose medium: -24.98%; Mtb cholesterol medium: -11.7%
- Cc1ccc(-c2nc(CN3CCOC(Cn4cncn4)C3)cs2)o1 (configuration not stated) : Mtb glucose medium: -4.397%; Mtb cholesterol medium: 4.926% and 2.433%
- N#Cc1c(N2CCN(CC3CCOC3)CC2)nc2ccccn12 (configuration not stated) : Mtb glucose medium: -10.95% and -10.49%; Mtb cholesterol medium: -12.23% and 9.496%
- c1ccc(OCCN2CCN(c3ncnc4[nH]ccc34)CC2)cc1 : Mtb glucose medium: 17.72%; Mtb cholesterol medium: -42.09%
- CCCSc1ncccc1C(=O)NCc1ccc(N(C)C)cc1 : Mtb glucose medium: -31.99%; Mtb cholesterol medium: -34.16%
- CN(C(=O)c1ccc(Cl)cn1)c1ccccc1S(C)(=O)=O : Mtb glucose medium: 5.522%; Mtb cholesterol medium: -14.72%
- CCN(Cc1ccco1)C(=O)c1cc(OC)c2c(c1)OCCO2 : Mtb glucose medium: 9.561% and 1.831%; Mtb cholesterol medium: 2.635%
- CCC(C(=O)NCCc1coc(-c2ccc(C)cc2)n1)N(C)C (configuration not stated) : Mtb glucose medium: -10.45%; Mtb cholesterol medium: -7.131%
- Cc1ncc2c(n1)C1(CCN(C(=O)C(C)C)CC1)OCC2.Cl : Mtb glucose medium: -24.86%; Mtb cholesterol medium: -7.431% and 4.643%
- CCN(CC)CC[C@H]1CN(C(=O)NC2CCCCC2)CC[C@H]1CC(=O)O : Mtb glucose medium: -2.692% and -5.762%; Mtb cholesterol medium: -15.58%
- Cc1occc1C(=O)N1CCC2(CCC(C(=O)NCC3CC3)O2)CC1 (configuration not stated) : Mtb glucose medium: 2.238%; Mtb cholesterol medium: 13.34%
- CN(Cc1cc(F)ccc1C#N)CC(C)(CO)CO : Mtb glucose medium: 59.1%; Mtb cholesterol medium: 6.206% and 13.39%
- COc1ncnc(N)c1CNCCc1ccc(-n2cccn2)cc1 : Mtb glucose medium: 1.383%; Mtb cholesterol medium: 12.52%
- Cc1nc(C)n(CC2CCCCN2CCOc2cccc(C#N)c2)n1 (configuration not stated) : Mtb glucose medium: -13.92%; Mtb cholesterol medium: 1.281%
- CC(C)N1CCC(NC(=O)NC2CCOc3ccc(Br)cc32)CC1 (configuration not stated) : Mtb glucose medium: -6.177%; Mtb cholesterol medium: -22.1%
- CCC(O)CN(CC(=O)Nc1cc(C)no1)c1ccccc1 (configuration not stated) : Mtb glucose medium: 24.19%; Mtb cholesterol medium: -8.258%